{"source": "paper PMC5435354", "molecules": {"B1": {"name": "RPS4-Myc (protein, UniProt Q9XGM3 1-1217)", "chain": "METSSISTVEDKPPQHQVFINFRGADLRRRFVSHLVTALKLNNINVFIDDYEDRGQPLDVLLKRIEESKIVLAIFSGNYTESVWCVRELEKIKDCTDEGTLVAIPIFYKLEPSTVRDLKGKFGDRFRSMAKGDERKKKWKEAFNLIPNIMGIIIDKKSVESEKVNEIVKAVKTALTGIPPEGSHNAVVGALGNSNAGTSSGDKKHETFGNEQRLKDLEEKLDRDKYKGTRIIGVVGMPGIGKTTLLKELYKTWQGKFSRHALIDQIRVKSKHLELDRLPQMLLGELSKLNHPHVDNLKDPYSQLHERKVLVVLDDVSKREQIDALREILDWIKEGKEGSRVVIATSDMSLTNGLVDDTYMVQNLNHRDSLQLFHYHAFIDDQANPQKKDFMKLSEGFVHYARGHPLALKVLGGELNKKSMDHWNSKMKKLAQSPSPNIVSVFQVSYDELTTAQKDAFLDIACFRSQDKDYVESLLASSDLGSAEAMSAVKSLTDKFLINTCDGRVEMHDLLYKFSREVDLKASNQDGSRQRRLWLHQHIIKGGIINVLQNKMKAANVRGIFLDLSEVEDETSLDRDHFINMGNLRYLKFYNSHCPQECKTNNKINIPDKLKLPLKEVRCLHWLKFPLETLPNDFNPINLVDLKLPYSEMEQLWEGDKDTPCLRWVDLNHSSKLCSLSGLSKAEKLQRLNLEGCTTLKAFPHDMKKMKMLAFLNLKGCTSLESLPEMNLISLKTLTLSGCSTFKEFPLISDNIETLYLDGTAISQLPMNMEKLQRLVVLNMKDCKMLEEIPGRVGELKALQELILSDCLNLKIFPEIDISFLNILLLDGTAIEVMPQLPSVQYLCLSRNAKISCLPVGISQLSQLKWLDLKYCTSLTSVPEFPPNLQCLDAHGCSSLKTVSKPLARIMPTEQNHSTFIFTNCENLEQAAKEEITSYAQRKCQLLSYARKRYNGGLVSESLFSTCFPGCEVPSWFCHETVGSELEVKLLPHWHDKKLAGIALCAVVSCLDPQDQVSRLSVTCTFKVKDEDKSWVAYTCPVGSWTRHGGGKDKIELDHVFIGYTSCPHTIKCHEEGNSDECNPTEASLKFTVTGGTSENGKYKVLKCGLSLVYAKDKDKNSALETKYDMLIGKSFQETSEGVDGRVKKTKGKYVMPVEKNFQETTEGVDGRVNKKKKTRMDNGRPKKKQRSGRDDNQTRMQVELQEGNINSVIMHTVKNF"}, "B2": {"name": "PAD4-HA (phytoalexin deficient 4, HA-tagged) (protein, UniProt Q9S745 1-541)", "chain": "MDDCRFETSELQASVMISTPLFTDSWSSCNTANCNGSIKIHDIAGITYVAIPAVSMIQLGNLVGLPVTGDVLFPGLSSDEPLPMVDAAILKLFLQLKIKEGLELELLGKKLVVITGHSTGGALAAFTALWLLSQSSPPSFRVFCITFGSPLLGNQSLSTSISRSRLAHNFCHVVSIHDLVPRSSNEQFWPFGTYLFCSDKGGVCLDNAGSVRLMFNILNTTATQNTEEHQRYGHYVFTLSHMFLKSRSFLGGSIPDNSYQAGVALAVEALGFSNDDTSGVLVKECIETATRIVRAPILRSAELANELASVLPARLEIQWYKDRCDASEEQLGYYDFFKRYSLKRDFKVNMSRIRLAKFWDTVIKMVETNELPFDFHLGKKWIYASQFYQLLAEPLDIANFYKNRDIKTGGHYLEGNRPKRYEVIDKWQKGVKVPEECVRSRYASTTQDTCFWAKLEQAKEWLDEARKESSDPQRRSLLREKIVPFESYANTLVTKKEVSLDVKAKNSSYSVWEANLKEFKCKMGYENEIEMVVDESDAMET"}}, "key": {"nVenus-EDS1": {"biological_target": "T1, nVenus-EDS1 (UniProt Q9SU72)", "T1 sequence": "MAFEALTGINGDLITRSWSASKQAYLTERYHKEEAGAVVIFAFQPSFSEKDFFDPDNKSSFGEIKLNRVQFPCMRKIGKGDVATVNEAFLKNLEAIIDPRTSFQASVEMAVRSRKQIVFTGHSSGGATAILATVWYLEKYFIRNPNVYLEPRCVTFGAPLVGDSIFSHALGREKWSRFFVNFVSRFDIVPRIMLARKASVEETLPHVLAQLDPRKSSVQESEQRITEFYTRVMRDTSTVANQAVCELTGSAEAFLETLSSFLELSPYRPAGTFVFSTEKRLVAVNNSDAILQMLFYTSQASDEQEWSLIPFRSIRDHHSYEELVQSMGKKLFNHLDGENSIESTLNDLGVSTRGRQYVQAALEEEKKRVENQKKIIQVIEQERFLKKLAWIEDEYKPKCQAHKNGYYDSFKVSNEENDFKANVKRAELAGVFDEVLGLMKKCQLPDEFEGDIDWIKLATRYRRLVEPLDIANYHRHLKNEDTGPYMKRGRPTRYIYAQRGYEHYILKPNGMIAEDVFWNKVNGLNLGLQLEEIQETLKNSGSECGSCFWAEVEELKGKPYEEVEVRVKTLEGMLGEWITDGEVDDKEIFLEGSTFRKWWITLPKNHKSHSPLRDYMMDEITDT", "assay": "split reporter"}, "nVenus-PAD4": {"biological_target": "T2, nVenus-PAD4 (UniProt Q9S745)", "T2 sequence": "B2 chain", "assay": "split reporter"}, "[1]": {"biological_target": "T3, EDS1-Myc (C-terminally Myc-tagged EDS1) (UniProt Q9SU72)", "T3 sequence": "T1 sequence", "assay": "co-IP"}, "[2]": {"biological_target": "AvrRps4-GFP (Pseudomonas syringae) (UniProt Q48B92)", "assay": "co-IP"}}, "note": "Results are given in words; binding and its absence hold for the method and conditions named. In cells and extracts the contact can be indirect. For some assays here: Binding can be weak; no strength is given. For some assays here: Sequences can lack the tags named with a protein."}
{"molecule": "AvrRps4-cCFP (Pseudomonas syringae)", "values": [{"measurement": "binding", "setting": "nVenus-EDS1", "result": "binds"}, {"measurement": "binding", "setting": "nVenus-PAD4", "result": "no binding"}]}
{"molecule": "AvrRps4^E187A-GFP (Pseudomonas syringae)", "values": [{"measurement": "binding", "setting": "[1]", "result": "binds"}]}
{"molecule": "B1", "values": [{"measurement": "binding", "setting": "[2]", "result": "binds"}]}
{"molecule": "B2", "values": [{"measurement": "binding", "setting": "[2]", "result": "binds"}]}
